Reference: PubChem BioAssay AID1259424 (University of Nebraska Medical Center, 2018)

Screen: 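Seek colon cancer survival genes behaving like KSR1, using a six-gene signature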 (primary screen)
Cells: human HCT116 colon cancer cells
Reagent: siRNA pool against human genes, 50 nM
Measured: 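Six signature mRNAs by branched-DNA multiplex assay, scaled to two housekeeping genes and non-targeting median, log2; matched to mean KSR1 knockdown profile by Pearson correlation and euclidean distance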
Direction: mean correlation with KSR1 profile and KSR1 correlation: higher = expression change more like KSR1 knockdown; mean distance from KSR1 profile: higher = expression change less like KSR1 knockdown
This is a random part of about 14,000 deposited reagents. 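Higher correlation or smaller distance means closer resemblance to KSR1 loss; control wells, including KSR1 knockdowns, recur on many plates.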 Further read-outs or replicates are left out here. Not given: the time to read-out.

no.	gene	mean correlation with KSR1 profile	mean distance from KSR1 profile	KSR1 correlation, replicate 1	KSR1 correlation, replicate 2
1	IFNAR1 (interferon alpha and beta receptor subunit 1)	-0.0235	2.29	-0.0901	-0.0041
2	GPR61 (G protein-coupled receptor 61)	0.803	1.42	0.774	0.826
3	DRAP1 (DR1 associated protein 1)	-0.0271	2.45	0.238	-0.115
4	GSK3A (glycogen synthase kinase 3 alpha)	0.776	1.71	0.876	0.767
5	IFT81 (intraflagellar transport 81)	-0.644	2.67	-0.669	-0.615
6	HUS1 (HUS1 checkpoint clamp component)	0.034	3.63	-0.0193	-0.0638
7	CCDC59 (coiled-coil domain containing 59)	-0.513	2.11	-0.358	-0.645
8	FZD2 (frizzled class receptor 2)	0.498	1.71	0.478	0.581
9	GSTM1 (glutathione S-transferase mu 1)	0.189	2.03	0.219	0.153
10	DAG1 (dystroglycan 1)	0.334	0.802	0.329	0.0591
11	ELK1 (ETS transcription factor ELK1)	0.19	2.09	-0.547	0.542
12	MRPS17 (mitochondrial ribosomal protein S17)	-0.166	3.88	-0.221	-0.0586
13	SASH3 (SAM and SH3 domain containing 3)	-0.563	3.02	-0.668	-0.533
14	SLC15A2	0.414	0.946	0.83	0.0217
15	UGT1A6 (UDP glucuronosyltransferase family 1 member A6)	-0.388	1.87	-0.393	-0.492
16	TMEM106B (transmembrane protein 106B)	-0.735	2.56	-0.713	-0.424
17	ADGRF3 (adhesion G protein-coupled receptor F3)	0.765	1.7	0.69	0.733
18	KHDRBS3	-0.781	2.54	-0.703	-0.739
19	ZNF768 (zinc finger protein 768)	-0.0938	2.27	-0.0794	0.259
20	MYOG (myogenin)	0.435	1.44	0.598	0.657
21	TSPAN17 (tetraspanin 17)	0.296	2.14	0.048	0.457
22	EFEMP2 (EGF-like fibulin extracellular matrix protein 2)	-0.817	1.72	-0.433	-0.826
23	PDE1B (phosphodiesterase 1B)	0.55	2.11	0.382	0.587
24	EWSR1 (EWS RNA binding protein 1)	-0.596	2.8	-0.487	-0.652
25	POLR1C (RNA polymerase I and III subunit C)	-0.365	3.38	-0.263	-0.406
26	GTF2H4 (general transcription factor IIH subunit 4)	-0.18	2.36	-0.242	-0.303
27	TSPO (translocator protein)	0.535	2.14	0.532	0.571
28	SDHAF2 (succinate dehydrogenase complex assembly factor 2)	-0.401	2.24	-0.24	-0.59
29	ARL4A (ARF like GTPase 4A)	-0.156	2	-0.165	-0.00414
30	FAM217B (family with sequence similarity 217 member B)	-0.186	1.75	-0.303	-0.275
31	CCT3 (chaperonin containing TCP1 subunit 3)	-0.555	2.25	0.204	-0.534
32	NIPSNAP3B (nipsnap homolog 3B)	-0.751	2.33	-0.613	-0.925
33	KCNA4 (potassium voltage-gated channel subfamily A member 4)	-0.572	2.26	-0.553	-0.633
34	PLP2 (proteolipid protein 2)	-0.119	2.32	0.21	0.00576
35	HAVCR1 (hepatitis A virus cellular receptor 1)	-0.303	1.66	-0.115	-0.29
36	PSMF1 (proteasome inhibitor subunit 1)	0.0387	4.33	0.0382	0.124
37	EML2 (EMAP like 2)	0.495	1.87	0.829	0.345
38	GSTM3 (glutathione S-transferase mu 3)	0.0999	1.69	0.247	-0.139
39	HNRNPL (heterogeneous nuclear ribonucleoprotein L)	-0.55	5.98	-0.683	-0.517
40	FST (follistatin)	-0.464	1.13	-0.682	-0.424
41	ATG14 (autophagy related 14)	0.000182	1.07	0.0284	0.129
42	H1-5 (H1.5 linker histone, cluster member)	-0.511	2.73	-0.561	-0.275
43	SOX8 (SRY-box transcription factor 8)	-0.00599	2.82	0.0568	0.247
44	ASF1A (anti-silencing function 1A histone chaperone)	0.103	1.84	0.216	0.0725
45	GPN1 (GPN-loop GTPase 1)	-0.261	3.03	-0.226	-0.132
46	DNTT (DNA nucleotidylexotransferase)	0.363	2.56	0.481	0.247
47	RNF6 (ring finger protein 6)	0.61	1	0.43	0.519
48	NACA (nascent polypeptide associated complex subunit alpha)	0.575	0.808	0.457	0.639
49	FADS3 (fatty acid desaturase 3)	-0.54	2.69	-0.774	-0.384
50	ADHFE1 (alcohol dehydrogenase iron containing 1)	-0.89	2.7	-0.65	-0.484
